# Reference: PubChem BioAssay AID248 (DTP/NCI, 2004)
# The list does not hold the whole screen: it gathers tests that were run many times, whatever their T/C, doses with no T/C, and many T/C values between a quarter and a half above the control. Other doses and runs of a compound stand elsewhere. T/C: endpoint of the treated group in % of that of the vehicle group. Some entries give survivors of the animals treated and no T/C: the source holds a T/C of zero for them, seemingly a mark for toxic or unscored doses. Some doses without a T/C left all or most animals alive at the check, yet need not have been tolerated: the source hardly ever lists a survival T/C far under the control, and the zero likely stands for such cases as well. Survivors were counted at the toxicity check, usually on the fifth day, unless a day is given; later deaths do not show. Schedules are NCI's codes, taken here to give the interval after Q, in days (D) or hours (H), and the number of doses after X. Some doses were run more than once; their values stand side by side, smallest first. Some molecules as drawn cover several salts, stereoisomers or complexes of the source; a dose is that of the sample tested. Marks such as (2×) stand for listed records that agree. Some schedules carry Z or #; the key to these is not given. For survival time, the PubChem record calls one and a half times the control and up active, and a quarter to a half above the control has no call in these data; cut-offs in other NCI protocols can differ.
# System: L1210 leukemia ip in BDF1 mice, survival T/C
# Test: NCI In Vivo Anticancer Drug Screen. Data for tumor model L1210 Leukemia (intraperitoneal) in B6D2F1 (BDF1) mice
# Settings: T/C endpoint: mean survival time, higher T/C = longer survival
# [1] = dose: 100.0 mg/kg/injection, schedule: Q01DX009 (ip), vehicle: saline
# [2] = dose: 200.0 mg/kg/injection, schedule: Q01DX009 (ip), vehicle: saline
# [3] = dose: 400.0 mg/kg/injection, schedule: Q01DX001 (ip), vehicle: saline
# [4] = dose: 100.0 mg/kg/injection, schedule: Q01DX009 (ip), vehicle: Klucel (hydroxypropylcellulose) (HPC)
# [5] = dose: 200.0 mg/kg/injection, schedule: Q01DX009 (ip), vehicle: Klucel (hydroxypropylcellulose) (HPC)
# [6] = dose: 400.0 mg/kg/injection, schedule: Q01DX009 (ip), vehicle: Klucel (hydroxypropylcellulose) (HPC)
# [7] = dose: 400.0 mg/kg/injection, schedule: Q04DX003 (ip), vehicle: Klucel (hydroxypropylcellulose) (HPC)
# [8] = dose: 100.0 mg/kg/injection, schedule: Q04DX003 (ip), vehicle: saline
# [9] = dose: 200.0 mg/kg/injection, schedule: Q04DX003 (ip), vehicle: saline
# [10] = dose: 400.0 mg/kg/injection, schedule: Q04DX003 (ip), vehicle: saline
# [11] = dose: 400.0 mg/kg/injection, schedule: Q01DX001 (ip), vehicle: carboxymethylcellulose (CMC)
# [12] = dose: 400.0 mg/kg/injection, schedule: Q01DX009 (ip), vehicle: saline
# [13] = dose: 100.0 mg/kg/injection, schedule: Q01DX009 (ip), vehicle: saline with Tween-80
# [14] = dose: 200.0 mg/kg/injection, schedule: Q01DX009 (ip), vehicle: saline with Tween-80
smiles,measurement,setting,value
CNNC(=O)Cc1ccc(OC)cc1,survivor count,[1],1 of 6
same,survivor count,[2],0 of 6
same,survivor count,[3],1 of 6
CCOc1ccc(/C=C/[N+](=O)[O-])cc1,survivor count,[4],0 of 6 and 6 of 6
same,survivor count,[5],1 of 6 and 2 of 6
same,survivor count,[6],0 of 6 (2×)
same,survivor count,[7],6 of 6
CCCN(CCC)CCCCN(CCC)CCCN(CCC)CCC,survivor count,[3],0 of 4
CN(C)CCCNC(=S)S,survivor count,"dose: 50.0 mg/kg/injection, schedule: Q04DX003 (ip), vehicle: saline",3 of 6
same,survivor count,[8],0 of 6
same,survivor count,[9],0 of 6
same,survivor count,[10],0 of 6
c1ccc2c[n+](CC[n+]3ccc4ccccc4c3)ccc2c1,survivor count,"dose: 150.0 mg/kg/injection, schedule: Q04DX003 (ip), vehicle: saline",1 of 6
same,survivor count,"dose: 300.0 mg/kg/injection, schedule: Q04DX003 (ip), vehicle: saline",0 of 6
CCCC1=NNC(=O)C1(Br)Br,survivor count,"dose: 100.0 mg/kg/injection, schedule: Q01DX001 (ip), vehicle: carboxymethylcellulose (CMC)",2 of 4
same,survivor count,"dose: 200.0 mg/kg/injection, schedule: Q01DX001 (ip), vehicle: carboxymethylcellulose (CMC)",0 of 4
same,survivor count,[11],0 of 4
O=C(CC(=O)Nc1ccc(C2=NCCCN2)cc1)Nc1ccc(C2=NCCCN2)cc1,survivor count,"dose: 500.0 mg/kg/injection, schedule: Q01DX Z (ip), vehicle: water",0 of 6
CSc1nnnc2ccccc12,survivor count,"dose: 150.0 mg/kg/injection, schedule: Q04DX002 (ip), vehicle: saline with Tween-80",3 of 3
CN(C)CN(C)C,survivor count,"dose: 100.0 mg/kg/injection, schedule: Q01DX001 (ip), vehicle: saline",5 of 6
same,survivor count,[1],6 of 6
CC1NC(=S)NC(=O)C1CCSC(=N)N (stereo not drawn),survivor count,[3],2 of 6
CNc1ccc(C(=O)O)cc1I,survivor count,[4],6 of 6
same,survivor count,[5],6 of 6
same,survivor count,[6],6 of 6
ClCc1ccc2ccc3cccc4ccc1c2c34,survivor count,"dose: 50.0 mg/kg/injection, schedule: Q01DX009 (ip), vehicle: carboxymethylcellulose (CMC)",4 of 6
FC(F)(F)c1cc(CN(CCCl)CCCl)cc(C(F)(F)F)c1,T/C,"dose: 5.5 mg/kg/injection, schedule: Q01DX009 (ip), vehicle: saline",126 % of control
same,survivor count,"dose: 120.0 mg/kg/injection, schedule: Q01DX009 (ip), vehicle: other",4 of 6
same,survivor count,"dose: 200.0 mg/kg/injection, schedule: Q01DX009 (ip), vehicle: other",1 of 6
same,survivor count,"dose: 200.0 mg/kg/injection, schedule: Q01DX015 (ip), vehicle: carboxymethylcellulose (CMC)",5 of 6
same,survivor count,"dose: 266.0 mg/kg/injection, schedule: Q04DX003 (ip), vehicle: other",6 of 6
same,T/C,[11],125 % of control
same,survivor count,"dose: 400.0 mg/kg/injection, schedule: Q04DX003 (ip), vehicle: other",4 of 5
same,survivor count,"dose: 600.0 mg/kg/injection, schedule: Q01DX001 (ip), vehicle: other",0 of 6
same,survivor count,"dose: 900.0 mg/kg/injection, schedule: Q01DX001 (ip), vehicle: other",1 of 6
CCCCCOC(=O)CCCc1ccc(N(CCCl)CCCl)cc1,T/C,"dose: 25.0 mg/kg/injection, schedule: Q01DX009 (ip), vehicle: saline",131 and 139 % of control
same,T/C,"dose: 50.0 mg/kg/injection, schedule: Q01DX009 (ip), vehicle: saline",127 % of control
same,survivor count,[1],4 of 6 and 7 of 10
same,survivor count,[2],2 of 6
same,survivor count,[12],0 of 6
CCN1C(=O)/C(=C\C=C2\SCCN2CI)OC1=S,survivor count,"dose: 266.8 mg/kg/injection, schedule: Q01DX001 (ip), vehicle: other",6 of 6
O=C(/C=C/c1cccnc1)/C=C/c1cccnc1,survivor count,"dose: 35.0 mg/kg/injection, schedule: Q01DX009 (ip), vehicle: Klucel (hydroxypropylcellulose) (HPC)",3 of 6
same,survivor count,"dose: 55.0 mg/kg/injection, schedule: Q01DX009 (ip), vehicle: Klucel (hydroxypropylcellulose) (HPC)",2 of 6
COc1c(Cl)c(C(Cl)(Cl)Cl)nc2ccccc12,survivor count,[5],2 of 3
O=C/C(Br)=C\c1ccccc1,survivor count,"dose: 200.0 mg/kg/injection, schedule: Q04DX003 (ip), vehicle: Klucel (hydroxypropylcellulose) (HPC)",0 of 6
same,survivor count,[7],1 of 6
COc1cc(C(O)CN)cc(OC)c1OC (stereo not drawn),survivor count,[12],3 of 6
CCN(C)CCC(CN)(CCN(C)CC)c1cccc2ccccc12,survivor count,[8],2 of 6
same,survivor count,[9],0 of 6
same,survivor count,[10],0 of 6
CN(C)N=Nc1ccc(C(=O)O)cc1,T/C,[13],130 and 137 % of control
same,survivor count,[14],3 of 3
same,T/C,[9],128 and 132 % of control
CCc1ncc(N2C3CCCC2CC(=O)C3)[nH]1,survivor count,"dose: 300.0 mg/kg/injection, schedule: Q01DX001 (ip), vehicle: saline",2 of 6
CCOP(=[Se])(OCC)OCC,survivor count,[13],0 of 6
same,survivor count,[14],0 of 6
same,survivor count,"dose: 400.0 mg/kg/injection, schedule: Q01DX009 (ip), vehicle: saline with Tween-80",0 of 6
C(=N\Nc1nc2ccccc2s1)/c1ccc2ccccc2n1,survivor count,[6],3 of 6
